Reference: US20260007643A1, “HIGHLY SOLUBLE FORMULATIONS OF HARMINE” (Reconnect Labs AG, priority 2022, published 2026)
Some of these results come from one statement about several compounds together.

Settings: aqueous solution of harmine freebase and the acid
Method: Thus, the present inventors performed an additional screening, in which different compositions of harmine were manufactured and their solubility in water was examined.
To this end, in a first experiment 1 g of harmine freebase was added to […] of dH2O to yield a final concentration of 20% (w/w). Then, the acids mentioned above were individually added to the solution in different molar rations (e.g. 1:1 or 2:1) and it was examined, whether the acids can solubilize harmine freebase by protonation or complex formation.

D-glucuronic acid
Solubility of harmine with the acid: higher than 15%
